PubChem BioAssay AID652259, Drosophila RNAi Screening Center, 2013

Aim: 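Knock-downs that push a Wingless-driven reporter up or down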 (primary screen)
Cell system: Drosophila clone 8 imaginal disc epithelial cells
Knock-down reagent: long dsRNA against Drosophila genes
Challenge: pathway stimulated by co-transfected Wingless expression plasmid
Read-out: 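Firefly luciferase from a tcf-site Wingless reporter, measured alongside co-transfected Renilla luciferase that tracks transfection; pathway stimulated by a Wingless plasmid; the firefly-to-Renilla ratio is not deposited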
Reading the numbers: firefly reporter light: higher = more Wg reporter light, before normalisation; Renilla control light: higher = more transfected or surviving cells
Hit rule: 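a knock-down is a candidate when at least two out of four statistical tests show it departing from its plate mean; one test alone signals a weak candidate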
Calls: active = candidate regulator (raises or lowers reporter); inactive = not a candidate
In all, the deposit lists about 22,000 reagents; shown is a random part of those that have a named target and a result. Of all reagents, 233 (1.1%) are marked active. 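Light values are raw, unnormalised plate reads; the ratio scores behind the reporter calls were not deposited.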 A plus sign joins genes that one reagent is predicted to hit. No sequences are given here. The record does not give: the amount of reagent, the time to read-out, the dose of the treatment.

gene,amplicon,"reporter change call, replicate 1","firefly reporter light, replicate 1","firefly reporter light, replicate 2","Renilla control light, replicate 1","Renilla control light, replicate 2",call
CG7714,DRSC16300,,14556,,3747,,inactive
RpS23,DRSC07169,,9837,,3596,,inactive
CG14893,DRSC15015,,13104,,3971,,inactive
U2af50,DRSC20297,,2233,8048,681,2008,inactive
U2af50,DRSC22867,,6.11e5,5.65e5,1.79e5,2.00e5,inactive
sw + Sdic4 + Sdic3 + 2 more,DRSC20696,,22272,,9634,,inactive
Sec16,DRSC19788,,17563,,9533,,inactive
Sec16,DRSC19858,,26496,,14295,,inactive
Smvt,DRSC15426,,26736,,13600,,inactive
Obp56f,DRSC22270,,2.98e5,3.93e5,1.17e5,1.41e5,inactive
slx1,DRSC12290,,16713,,3973,,inactive
alphaTry,DRSC07577,,10454,,3932,,inactive
ana1,DRSC16079,,4432,10627,1957,4457,inactive
ana1,DRSC21825,,8.13e5,7.63e5,4.34e5,3.36e5,inactive
FMRFa,DRSC07428,,2864,6763,651,1926,inactive
CG11269,DRSC04094,,2005,5744,705,2432,inactive
Cpr12A,DRSC19722,,22060,,11264,,inactive
CG7518,DRSC16253,,5451,,2548,,inactive
CG7362,DRSC16236,,18168,6.23e5,4887,3.01e5,inactive
CG8319,DRSC16407,,9170,,2353,,inactive
fs(1)N,DRSC18578,,23240,,19408,,inactive
CSN3,DRSC11859,Wg reporter activity raised,36787,,3818,,active
Gcat,DRSC09719,,8938,,3362,,inactive
Tsp42Ec,DRSC06192,,3077,4923,966,2140,inactive
CG18301,DRSC02662,,2394,8946,572,3504,inactive
CG14298,DRSC14777,,14148,,2345,,inactive
HPS4,DRSC06906,,3901,,2406,,inactive
Trc8,DRSC15437,,3088,6822,1383,2624,inactive
CG3036,DRSC00260,,30727,8.08e5,12841,4.38e5,inactive
CG3036,DRSC00562,,18503,,4989,,inactive
CG3437,DRSC10366,,6340,,2214,,inactive
CSN4,DRSC07350,,2866,7106,695,2755,inactive
Hcf,DRSC17143,,2684,5409,1152,2021,inactive
CG31249,DRSC16248,,13040,,2214,,inactive
CG11406,DRSC04010,,18954,,9770,,inactive
CG11406,DRSC04108,,3091,9410,572,3882,inactive
Nhe3,DRSC03380,,2512,7928,1077,3116,inactive
CG3107,DRSC04888,,14368,,4194,,inactive
Dip-C,DRSC15855,,6747,,2565,,inactive
Hsp27,DRSC11190,,4696,,1383,,inactive
CG32066,DRSC10652,,6599,,2855,,inactive
CG32066,DRSC10653,,4610,,2165,,inactive
CG44836,DRSC09915,,6992,,3153,,inactive
Pex23,DRSC10323,,5095,,1341,,inactive
Pex23,DRSC10645,,9946,,4196,,inactive
MICU3,DRSC13381,,4549,,2240,,inactive
MICU3,DRSC15613,,4065,6205,1901,2496,inactive
CG33308,DRSC01419,,15462,,6547,,inactive
CG12828,DRSC06177,,2836,6109,652,2123,inactive
mdy,DRSC01559,,18280,,8505,,inactive
mdy,DRSC02250,,6561,,2522,,inactive
CG14147,DRSC10149,,4806,,2114,,inactive
CG7191,DRSC03022,,3842,6160,1321,2593,inactive
CG42326,DRSC06483,,2985,9613,1068,3483,inactive
CG42326,DRSC06484,,2802,6518,865,2507,inactive
Nedd4,DRSC11234,,7240,,3557,,inactive
Nedd4,DRSC21548,,3.55e5,3.82e5,1.66e5,1.68e5,inactive
CG10116,DRSC09700,,4578,,1228,,inactive
CG33278,DRSC10336,,2356,3968,1696,2781,inactive
CG17294,DRSC02596,,9468,,5336,,inactive
sog,DRSC20379,,16434,,8288,,inactive
CG7182,DRSC10780,,2364,,1367,,inactive
CG30496,DRSC06805,,19121,,5273,,inactive
tim,DRSC00841,,12376,,5248,,inactive
CG9967,DRSC00742,,11291,,2586,,inactive
CG5597,DRSC04517,,14221,,5190,,inactive
GstD1,DRSC16683,,23620,,5640,,inactive
Mys45A,DRSC07067,,8807,,2725,,inactive
bigmax,DRSC15481,,4424,9639,1734,3523,inactive
Rpn11,DRSC03422,,1559,3024,464,1049,inactive
NfI,DRSC17158,,26757,,22250,,inactive
CG31698,DRSC22226,,8.25e5,7.36e5,3.78e5,3.39e5,inactive
Rab9D + Rab9Fa + Rab9E,DRSC19853,,17291,,8796,,inactive
